Laboratory results as given in US8628963B2, “Medium composition comprising neuropeptide Y for the generation, maintenance, prolonged undifferentiated growth of pluripotent stem cells and method of culturing pluripotent stem cell using the same” (Korea Research Institute of Bioscience and Biotechnology, priority 2009, dated 2014).
Some entries share one result that the patent states for a list of compounds. At least one structure is not confirmed: it was looked up by name or label, or the drawing left a doubt.

Tested on: human embryonic stem cells
Experiment: Feeder-free culture: maintenance of undifferentiated state (morphology, ALP staining, hESC markers)
Format: cell-based
Conditions: 3 μM antagonist in NPY medium
Method: Each experiment was carried out at least three times. […] Error bars represent standard error of the mean (n=3).

`NC(N)=NCCC[C@@H](NC(=O)C(c1ccccc1)c1ccccc1)C(=O)NCc1ccc(O)cc1` [BIBP3226] was tested, and the “Time until differentiation in NPY medium in presence of antagonist” value was no more than 4 days.
